At least one peptide structure holds a part that was inferred or is arguable (an end, a ring closure or a residue). Positions of bridges follow the written chain, without caps; N, C: chain ends. Residues, ends and D or L forms follow the SMILES beside them.
Legend:
[1] = system: integrin α6 subunit on human oocytes; assay: Induction of fusion patches on human oocytes (integrin alpha 6 subunit immunofluorescence); format: cell-based; details: 200 μM
[2] = system: human zona-free oocytes and spermatozoa; format: cell-based
Description: Patients donated said oocytes for research purposes and signed a consent form approved by the Institutional Review Board of the Aulnay-sous-Bois hospital.
These oocytes aged 48 hours or matured in vitro were not or were no longer capable of producing an embryo. Moreover, the polyspermy blocking mechanism which ensures that the embryo will be diploid is located in the zona pellucida of the oocyte. By removing the zona pellucida of these oocytes, this protective mechanism is abolished, leading to nonviable polyspermic zygotes in the event of gamete fusion. Finally, as embryo development occurs inside the zona pellucida for the first six days, the absence of the latter precludes said development from taking place.
To maintain the oocyte membrane as close as possible to its natural state, the inventors removed the zona pellucida mechanically with microsurgical scissors.
Sperm from fertile donors was collected after three days of abstinence and prepared as for IVF. Briefly, the ejaculate was placed at 37° C. until liquefication and then selected on a 2 layer Puresperm gradient (90 and 45%). The sperm was then kept in capacitating conditions until insemination of the oocytes.
Functional tests of inhibition of fusion were carried out in conditions similar to those used for IVF, that is, in conditions sufficiently close to physiological conditions since they enable pregnancy and fetuses. Briefly, the oocytes were incubated in 20 μl drops of Ferticult under oil for 18 hours in a 5% CO2 incubator at 37° C. with 4000 mobile sperm cells. The tests were carried out by supplementing the medium with the FEEc peptide at 200 μM concentration. At the end of incubation, the oocytes were washed and incubated for 20 minutes in Hoechst 33342 (Sigma) 5 μg/ml. After fixation in 4% PFA 1% PBS-BSA for 30 minutes at room temperature, the oocytes were mounted in Immunomount between the coverslip and the slide and examined under ultraviolet light. Fused spermatozoa were fluorescent. The slides were analyzed under a Zeiss Axiophot microscope equipped with a camera connected to Imaging System Package image analysis software (Applied Imaging, Newcastle-upon-Tyne, UK).
Zona-free oocytes were incubated in 20 μl drops of culture medium under oil with 4000 mobile spermatozoa for 18 hours. They were then washed and incubated in 10 μM Hoechst 33342 for 30 minutes and washed again, mounted in immunomount between the coverslip and the slide and examined under ultraviolet light. FIG. 3A: control oocyte showing the presence of about twenty fused spermatozoa in the oocyte cytoplasm. FIG. 3B: oocyte co-incubated with 100 μM FEEc peptide showing about sixty fused spermatozoa.

For N[C@H]1CSSC[C@@H](C(=O)O)NC(=O)[C@H](CCC(=O)O)NC(=O)[C@H](CCC(=O)O)NC(=O)[C@H](Cc2ccccc2)NC(=O)[C@H](CO)NC1=O [FEEc, CSFEEC] (H-CSFEEC-OH; disulfide 1-6), the “redistribution of the integrin α6 subunit on the oocyte surface (FIG. 2B)” value ([1]; 45 minutes, intact oocytes) was “the α6 subunit redistributed to form membrane patches”, the “redistribution of the integrin α6 subunit on the oocyte surface” value ([1]; 18 hours, oocytes matured in vitro) was “induced the redistribution thereof in the form of small membrane patches” and the “number of spermatozoa that fused with the oocyte” value ([2]; 200 μM peptide co-incubated, 18 hours, 4000 mobile sperm, control 16.4±5.2, P<0.001) was 26.1±8.3. The “mean increase in the number of spermatozoa that fused with the oocyte” value ([2]; 200 μM peptide vs control) was 60%, the “effect on number of spermatozoa in the oocyte cytoplasm (in words)” value ([2]; co-incubation with peptide and spermatozoa, 200 μM, vs control oocytes) was “much higher” and the “fused spermatozoa in the oocyte (FIG. 3B)” value ([2]; oocyte co-incubated with 100 μM peptide, 18 hours, control about twenty) was “about sixty”. The “fusiogenic capacity of oocytes preincubated with peptide then washed and inseminated” value ([2]; preincubation, wash, then insemination (reversibility)) was “no change in their fusiogenic capacity”.
